{"source": "paper PMC3229512", "system": "WC-1 (WHITE COLLAR-1) + WC-2 (WHITE COLLAR-2)", "experiment": "EMSA", "conditions": "0.1 ug poly(dI-dC), 0.5 ul rabbit serum, recombinant protein, label: 32P-dCTP end label", "note": "For at least one entry, the source does not settle the construct or the ends of the probe.", "data": [{"sequence": "GGGCGTCCTGATGCCGCTGCAAGACCGATGACGCTGCAAAATTGAGATCTA / GGGTAGATCTCAATTTTGCAGCGTCATCGGTCTTGCAGCGGCATCAGGACG [frq C-box probe]", "values": [{"measurement": "binding signal (fraction of binding in light)", "setting": "dark, 1 mM H2O2, binding induced, 2-fold less than in light, 1 mM FAD; 20 mM HEPES pH 7.9, 1 mM EDTA, 2 mM MgCl2, 10% glycerol, 20 uM ZnCl2; dialysis buffer had 40 mM KCl)", "value": 0.5}, {"measurement": "binding result", "setting": "light, 30 min, 1 mM FAD; 20 mM HEPES pH 7.9, 1 mM EDTA, 2 mM MgCl2, 10% glycerol, 20 uM ZnCl2; dialysis buffer had 40 mM KCl)", "value": "binds"}]}]}
